Results on 50 compounds are retold here after the supplement of paper PMC9938546.

SMILES strings stand for the structures. Counter-ions that a name gives are not always drawn. This is one part of the list. Baselines shift from plate to plate; read single values as rough.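 HCT116-GFP is a human colorectal cancer cell line that carries a KRAS mutation, is microsatellite-unstable and always makes green fluorescent protein; the immune cells came from healthy donors. Live-cell imaging of the green signal stood in for cancer cell survival, and activated immune cells alone cut survival to about half.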

This test relates to HCT116-GFP. Description: HCT116-GFP viability (GFP intensity) relative to untreated HCT116-GFP monoculture control, co-culture with activated PBMCs; higher = less cancer cell killing. Particulars: culture: co-culture with anti-CD3/IL2 activated PBMCs 1:1; 10 µM; 72 h.
For `C[C@H](CCC(=O)O)[C@H]1CC[C@H]2[C@@H]3C(=O)C[C@@H]4CC(=O)CC[C@]4(C)[C@H]3CC(=O)[C@]12C` [Dehydrocholic acid], the HCT116-GFP viability was 48.6%.

For the compound `CCOC(=O)C1=C(C)NC(C)=C(C(=O)OC)C1c1cccc(Cl)c1Cl` (stereo not given) [Felodipine], the HCT116-GFP viability is 38.8%.

Regarding `O=C1c2c(O)ccc(O)c2C(=O)c2c(NCCNCCO)ccc(NCCNCCO)c21` [Mitoxantrone dihydrochloride], the HCT116-GFP viability is 1.4%.

Regarding `NNC(=O)c1ccncc1` [Isoniazid], the HCT116-GFP viability was 37.2%.

Take `CC1(C)O[C@@H]2C[C@H]3[C@@H]4C[C@H](F)C5=CC(=O)CC[C@]5(C)[C@H]4[C@@H](O)C[C@]3(C)[C@]2(C(=O)CO)O1` [Flurandrenolide]: the HCT116-GFP viability came to 91.1%.

For the compound `CCCCc1oc2ccccc2c1C(=O)c1cc(I)c(OCCN(CC)CC)c(I)c1` [Amiodarone hydrochloride], the HCT116-GFP viability is 40.4%.

With `O=C(O)c1cccnc1` [Niacin], the HCT116-GFP viability is 67.2%.

For the compound `Cc1cccc(N(C)C(=S)Oc2ccc3ccccc3c2)c1` [Tolnaftate], the HCT116-GFP viability came to 62.1%.

As to `O=c1[nH]c(=O)n([C@H]2C[C@H](O)[C@@H](CO)O2)cc1I` [Idoxuridine], the HCT116-GFP viability is 24.6%.

As to `COc1ccc(-c2ccc3cc(C(=O)O)ccc3c2)cc1C12CC3CC(CC(C3)C1)C2` [Adapalene], the HCT116-GFP viability was 3%.

For `CCN1CCCC1CNC(=O)c1cc(S(N)(=O)=O)ccc1OC` (stereo not given) [Sulpiride], the HCT116-GFP viability came to 47.9%.

Consider `CC12CC3CC(C)(C1)CC(N)(C3)C2` [Memantine Hydrochloride], for which the HCT116-GFP viability came to 54.3%.

For the compound `C#C[C@]1(O)CC[C@H]2[C@@H]3CCC4=Cc5oncc5C[C@]4(C)[C@H]3CC[C@@]21C` [Danazol], the HCT116-GFP viability amounted to 50.1%.

For the compound `CCOc1ccc(Cc2nccc3cc(OCC)c(OCC)cc23)cc1OCC` [Ethaverine hydrochloride], the HCT116-GFP viability turned out to be 35.2%.

In the case of `O=C(Nc1ccc([N+](=O)[O-])cc1Cl)c1cc(Cl)ccc1O` [Niclosamide], the HCT116-GFP viability was 2.33%.

Regarding `CN1CCCN=C1/C=C/c1cccs1` [Pyrantel tartrate], the HCT116-GFP viability is 26.1%.

As for `CCN(CC)CCN[C@@H](C(=O)OCCC(C)C)c1ccccc1` [Camylofine chlorhydrate], the HCT116-GFP viability was determined as 37.8%.

Consider `CCC[C@@H]1C[C@@H](C(=O)N[C@@H]([C@H]2O[C@H](SC)[C@H](O)[C@@H](O)[C@H]2O)[C@@H](C)O)N(C)C1` [Lincomycin hydrochloride], for which the HCT116-GFP viability was 43.5%.

For the compound `CC(C)(C)NC(=O)[C@H]1CC[C@H]2[C@@H]3CC[C@H]4NC(=O)C=C[C@]4(C)[C@H]3CC[C@]12C` [Finasteride], the HCT116-GFP viability is 77%.

On to `Nc1nc(N)c2nc(-c3ccccc3)c(N)nc2n1` [Triamterene], for which the HCT116-GFP viability was found to be 41.8%.

Turning to `C=C1C(=O)O[C@H]2[C@H]1CC/C(C)=C/CC[C@@]1(C)O[C@@H]21` [Parthenolide], the HCT116-GFP viability stood at 0.284%.

With `CCCCOc1ccc(C(=O)CCN2CCCCC2)cc1` [Dyclonine hydrochloride], the HCT116-GFP viability is 50.4%.

For the compound `CC(C)(C)CC(C)(C)c1ccc(OCCOCC[N+](C)(C)Cc2ccccc2)cc1` [Benzethonium chloride], the HCT116-GFP viability is 25.2%.

For the compound `Cn1nnc2c(C(N)=O)ncn2c1=O` [Temozolomide], the HCT116-GFP viability worked out at 39.1%.

Regarding `OC(CCN1CCCC1)(c1ccccc1)C1CCCCC1` (stereo not given) [Procyclidine hydrochloride], the HCT116-GFP viability stood at 71.5%.

Consider `CC(C)NCC(O)COc1cccc2[nH]ccc12` (stereo not given) [Pindolol], for which the HCT116-GFP viability is 45.1%.

With `CC(CN(C)C)CN1c2ccccc2CCc2ccccc21` (stereo not given) [Trimipramine maleate salt], the HCT116-GFP viability amounted to 65.5%.

As to `CC(C)C(=O)c1c(C(C)C)nn2ccccc12` [Ibudilast], the HCT116-GFP viability is 41.8%.

Take `NCCc1ccc(O)c(O)c1` [Dopamine hydrochloride]: the HCT116-GFP viability stood at 20.9%.

With `CC1(C)O[C@@H]2C[C@H]3[C@@H]4C[C@H](F)C5=CC(=O)C=C[C@]5(C)[C@H]4[C@@H](O)C[C@]3(C)[C@]2(C(=O)CO)O1` [Flunisolide], the HCT116-GFP viability worked out at 106%.

On to `C[C@H](CS)C(=O)N1CCC[C@H]1C(=O)O` [Captopril], for which the HCT116-GFP viability is 43.5%.

Take `CN(Cc1cc(Br)cc(Br)c1N)C1CCCCC1` [Bromhexine hydrochloride]: the HCT116-GFP viability came to 38.7%.

As to `Cc1c(Nc2ncccc2C(=O)O)cccc1C(F)(F)F` [Flunixin meglumine], the HCT116-GFP viability is 84.4%.

With `CC[C@H](c1ccc(O)cc1)[C@@H](CC)c1ccc(O)cc1` [Hexestrol], the HCT116-GFP viability came to 68.2%.

As to `CCCCCCNC(=O)n1cc(F)c(=O)[nH]c1=O` [Carmofur], the HCT116-GFP viability was determined as 1.39%.

As for `CCCOc1ccccc1-c1nc2[nH]nnc2c(=O)[nH]1` [Zaprinast], the HCT116-GFP viability came out at 33.8%.

Consider `COc1ccc(Cl)cc1C(=O)NCCc1ccc(S(=O)(=O)NC(=O)NC2CCCCC2)cc1` [Glibenclamide], for which the HCT116-GFP viability turned out to be 53.3%.

As to `Nc1nc(=O)n([C@@H]2CS[C@H](CO)O2)cc1F` [(-)-Emtricitabine], the HCT116-GFP viability amounted to 36.1%.

As for `CC#C[C@]1(O)CC[C@H]2[C@@H]3CCC4=CC(=O)CCC4=C3[C@@H](c3ccc(N(C)C)cc3)C[C@@]21C` [Mifepristone], the HCT116-GFP viability came out at 38.3%.

As for `CC(C(O)c1ccc(O)cc1)N1CCC(Cc2ccccc2)CC1` (stereo not given) [Ifenprodil tartrate], the HCT116-GFP viability came out at 51.2%.

As to `CN1CCN2c3ncccc3Cc3ccccc3C2C1` (stereo not given) [Mirtazapine], the HCT116-GFP viability was found to be 55.3%.

Consider `CC(C)[C@H](N)C(=O)OCCOCn1cnc2c(=O)nc(N)[nH]c21` [Valacyclovir hydrochloride], for which the HCT116-GFP viability amounted to 51.1%.

For the compound `Cc1cc(C)nc(NS(=O)(=O)c2ccc(N)cc2)n1` [Sulfamethazine sodium salt], the HCT116-GFP viability came to 74.7%.

On to `CC1(C)O[C@@H]2C[C@H]3[C@@H]4C[C@H](F)C5=CC(=O)C=C[C@]5(C)[C@@]4(F)[C@@H](O)C[C@]3(C)[C@]2(C(=O)CO)O1` [Fluocinolone acetonide], for which the HCT116-GFP viability was 91.7%.

As to `COc1cc(NS(=O)(=O)c2ccc(N)cc2)ncn1` [Sulfamonomethoxine], the HCT116-GFP viability was 68.3%.

For the compound `COC(=O)N/N=C/c1c[n+]([O-])c2ccccc2[n+]1[O-]` [Carbadox], the HCT116-GFP viability came out at 36.4%.

As for `CN(C(=O)CN(CCO)CC(=O)N(C)C(C)(C)Cc1ccccc1)C(C)(C)Cc1ccccc1` [Oxethazaine], the HCT116-GFP viability was 34.1%.

`CCOC(=O)/C=C(C)/C=C/C=C(C)/C=C/c1c(C)cc(OC)c(C)c1C` [Etretinate]: the HCT116-GFP viability was 69.7%.

Take `Cc1c(N)c(=O)n(-c2ccccc2)n1C` [Ampyrone]: the HCT116-GFP viability came to 34.8%.

For the compound `NC[C@H]1O[C@H](O[C@H]2[C@H](O)[C@@H](O[C@H]3O[C@H](CO)[C@@H](O)[C@H](N)[C@H]3O)[C@H](N)C[C@@H]2N)[C@H](N)C[C@@H]1O` [Tobramycin], the HCT116-GFP viability amounted to 4.82%.
